# Results as given in PubChem BioAssay AID1347076 (National Center for Advancing Translational Sciences (NCATS), 2019).
# About 13,000 (3.2%) of roughly 400,000 compounds were called active. Inconclusive results, whose numbers are uncertain, are shown with a selection of clear calls. The call rests on the fitted dose curve; in most records, active means well fitted cell-killing curve with a large enough effect; inconclusive means small, poorly fitted or top-dose-only effect, or effect the other way; inactive means flat fitted curve, though single readings scatter. Potencies of inconclusive entries are doubtful fits and often do not repeat.
# Test: qHTS assay for MDR1-selective chemotherapeutics: Primary screen using the drug-selected MDR subline cells KB-V1; further: nearly all actives have a fitted effect of over 60% in size
# Conditions: KB-V1 MDR cells viability, CellTiter-Glo, 72 h; activity change, negative = cytotoxicity: at 46.1 µM (top of the series)
# From the text: A prime difficulty in effectively treating cancer is the development of cellular resistance to multiple structurally unrelated anticancer drugs, a phenomenon known as multidrug resistance (MDR). […] Numerous strategies to overcome P-gp-mediated MDR have been explored, including the design of drugs that evade recognition and efflux, and development of inhibitors to block efflux and restore drug accumulation. […] An alternative approach is to exploit resistance by identifying drugs that target MDR cells over the non-resistant parental cells from which they were selected. […] The development of MDR1-selective agents represents a new strategy for resolving multidrug resistance, as it remains a long-standing clinical challenge for cancer chemotherapy.
# Our goal is to identify compounds that selectively kill P-gp-expressing MDR cells. We will identify MDR1-selective compounds by comparing toxicity of compounds in the screening library against parental, drug-naive (KB-3-1) adenocarcinoma cells as well as their drug-selected MDR sub-line (KB-V1). The differential toxicity of compounds against these two cell lines will be used to identify MDR1-selective compounds, whose cytotoxicity is potentiated, rather than diminished, by P-gp expression. This assay will be utilized to conduct a quantitative high-throughput screen (qHTS) in collaboration with the NIH Chemical Genomics Center to identify selective agents, and probe hits arising from the screen will be validated using secondary assays and characterized through a well-established follow-up research program. This screen was run against the entire NCGC library collection of about 400,000 compounds.
# NIH Molecular Libraries Probe Production Network [MLPCN]
# NIH Chemical Genomics Center [NCGC]
# PI: Michael Gottesman, National Cancer Institute, NIH
# Briefly, 5 microL of media containing either KB-V1 cells (columns 1-2, 4-48) are dispensed into Greiner white, treated solid-bottom 1536-well assay plates (media-only control is added to column 3). Compounds are then transferred via Kalypsys pin tool equipped with 1536-pin array (10 nL slotted pins, V&P Scientific, San Diego, CA). Following addition of compound, the plates are incubated at 37 degrees C for 72 hours. CellTiter-Glo (2.5 µL/well) is then added, and the plates are read in a ViewLux reader (Perkin-Elmer, clear luminescence filter, 1 second exposure, 1x binning) following a 10 minute incubation. All cells are dispensed in DMEM phenol-red free media containing 10% FBS.
# Library plates were screened starting from the lowest and proceeding to the highest concentration. Vehicle-only plates, with DMSO being pin-transferred to columns 5-48, will be inserted uniformly at the beginning and the end of each library in order to monitor and record any shifts in the background, which can be affected by reagent dispensers or loss in enzyme activity over time. Screening data will be corrected, normalized, and concentration-effect relationships will be derived by using publicly-available NCGC, NCATS curve fitting algorithms (http://ncgc.nih.gov/pub/openhts).
# On the % scale 0 is the no-effect control and ±100 the full control effect; potency means the concentration at half of the fitted maximal effect.
Structure (SMILES),Potency,"activity change, negative = cytotoxicity"
COC1=CC(=O)OC(c2ccc(C(F)(F)F)cc2)C1 (stereo unspecified),inactive,
O=C(COc1ccc(S(=O)(=O)NC2CCCCC2)cc1)NC1CCCC1,"inconclusive: 23.1 µM [cytotoxic, single point]",
COCCNC(=S)N1CCCC(CO)C1 (stereo unspecified),"inconclusive: 14.6 µM [rising, partial curve, poor fit]",
CSc1ccc(/C=C/C(=O)OCC(=O)NC2CCCCCC2)cc1,inactive,
O=C(c1ccccn1)N(Cc1cccs1)C1(C(=O)NC2CCCCC2)CCCCC1,"inconclusive: 5.8 µM [cytotoxic, partial curve]",
Cc1cc(C)nc(SCC(=O)Nc2ccnc3ccccc23)n1,active: 4.61 µM,
O=C(Nc1ncc(Cc2ccccc2Cl)s1)C1CCCO1 (stereo unspecified),"inconclusive: 29.1 µM [cytotoxic, single point]",
CCOC(=O)c1c(-c2ccccc2)nc2ccc(C)cn12,active: 20.6 µM,
CCc1ccc(-c2nc(CS(=O)CC(=O)NCCCN3CCC(C)CC3)c(C)o2)cc1 (stereo unspecified),inactive,
COc1ccc2[nH]c(C)c(CCN(Cc3cccs3)C(=S)Nc3cccc(F)c3)c2c1,"inconclusive: 18.4 µM [cytotoxic, single point]",
CCN(CC)CCn1c(-c2ccccc2)csc1=Nc1ccccc1,"inconclusive: 2.06 µM [cytotoxic, full curve]",
Cc1cccc(N=C2NC(=O)/C(=C/C=C/c3ccco3)S2)c1C,"inconclusive: 20.6 µM [cytotoxic, single point]",
O=C(Nc1ccc(Cl)c(S(=O)(=O)N2CCOCC2)c1)c1ccc(Cl)nc1,"inconclusive: 18.4 µM [cytotoxic, single point]",
COc1cc2c(C#N)c(N3CCOCC3)nc(N)c2c(N)n1,"inconclusive: 16.4 µM [cytotoxic, partial curve, poor fit]",
COc1cc(S(=O)(=O)Nc2ccc(C)cc2)ccc1N=Cc1c(C)[nH]n(-c2ccccc2)c1=O,"inconclusive: 29.1 µM [cytotoxic, partial curve, poor fit]",
Cc1ccc(OCCn2c(-c3ccc(Br)cc3)nc3ccccc3c2=O)cc1C,inactive,
CN(C)CCOc1ccc2c(c1)C(=O)C(=Cc1ncc([N+](=O)[O-])n1C)C2,active: 3.66 µM,
C=CCNC(=O)/C(C#N)=C/c1c(N(Cc2ccccc2)Cc2ccccc2)nc2ccccn2c1=O,active: 18.4 µM,
O=C(COc1ccccc1)NCC1CCCO1 (stereo unspecified),inactive,
COc1cc(N)c2ncccc2c1Br,"inconclusive: 13 µM [cytotoxic, single point]",
CCN(CCCNC(=O)CCn1c(=S)[nH]c2cc3c(cc2c1=O)OCO3)c1cccc(C)c1,inactive,
COc1cccc(C(=O)N2CCN(c3ccc(N4CCOCC4)nn3)CC2)c1,inactive,
COc1ccc(C(=O)NC(=S)Nc2ccccc2N2CCN(S(C)(=O)=O)CC2)cc1OC,"inconclusive: 10.3 µM [cytotoxic, partial curve]",
c1coc(-c2nn3c(Cn4nnc5ccccc54)nnc3s2)c1,active: 13 µM,
Cc1cc2c(c(N3CCOCC3)n1)C(=O)OC2,"inconclusive: 3.26 µM [rising, partial curve, poor fit]",
COc1ccc(C)cc1NC(=O)c1cccc(-c2ccc(OC(C)=O)cc2)c1,"inconclusive: 18.4 µM [cytotoxic, partial curve]",

Structure (SMILES),Potency,"activity change, negative = cytotoxicity"
COc1ccc(OCc2nc3c4c(ncn3n2)-c2ccccc2CC42CCCC2)cc1,active: 11.6 µM,
O=c1[nH]cc(S(=O)(=O)N2CCN(c3ccc(F)cc3)CC2)c(=O)[nH]1,"inconclusive: 20.6 µM [rising, single point]",
C[C@H]1CN([C@@H](C)CO)C(=O)c2cc(Br)cnc2O[C@H]1CN(C)C(=O)C1CC1,inactive,
COC(=O)Cn1c(=O)c2c(nc(Br)n2Cc2ccccc2Cl)n(C)c1=O,inactive,
CN(CC(=O)Nc1ccccc1Cl)C(=O)CSc1ncc(C(F)(F)F)cc1Cl,"inconclusive: 13 µM [cytotoxic, single point]",
Cc1ccc(Cn2nc(-c3ccccc3)nc2-c2ccccc2)cc1,"inconclusive: 32.6 µM [cytotoxic, single point]",
O=C(c1cc(COc2ccc(F)cc2Cl)on1)N1C[C@H]2CC[C@H]1C2,,inconclusive: -56.3%
COCCC(=O)N1CCC(Oc2ccc(C(=O)N(C)C(C)c3ccon3)cc2)CC1 (stereo unspecified),"inconclusive: 2.91 µM [cytotoxic, partial curve, poor fit]",
O=[N+]([O-])c1cc(Br)c(Nc2ccccc2)c([N+](=O)[O-])c1,active: 16.4 µM,
CCOC(=O)C1=CCN(S(=O)(=O)c2ccccc2Cl)C1c1cccc(Cl)c1 (stereo unspecified),inactive,
Fc1ccccc1-c1nc2ccccc2[nH]1,inactive,
C=C1CCC[C@]2(C)C[C@H]3OC(=O)C(CN4CCCCC4CO)[C@H]3CC12 (stereo partly specified),inactive,
N#Cc1ccc(OCC(=O)OCC(=O)NC2CC2)cc1,,inconclusive: -27.2%
O=C(CN1CCN(c2ccc(F)cc2)CC1)Nc1cccc(C(F)(F)F)c1,"inconclusive: 23.1 µM [cytotoxic, partial curve]",
CCC(=O)Nc1ccccc1C(=O)OCC(=O)c1ccc2ccccc2c1,"inconclusive: 16.4 µM [cytotoxic, single point]",
O=C(NCCc1ccccc1)c1ccc(S(=O)(=O)N2CCCC2)cc1,"inconclusive: 13 µM [cytotoxic, partial curve]",
CN(C)S(=O)(=O)c1cccc(N=C2NN=C(c3ccccc3)CS2)c1,"inconclusive: 20.6 µM [cytotoxic, single point]",
COc1cc(C(=O)NC2CC(C)(C)CC(C)(C)C2)ccc1OC1CCN(C(C)=O)CC1,inactive,
CCOC(=O)c1ccc(N=C2SC(C(=O)NC)CC(=O)N2Cc2ccc(F)cc2)cc1 (stereo unspecified),"inconclusive: 6.51 µM [cytotoxic, partial curve, poor fit]",
CCOC(=O)N/N=C(C)/C=C/c1ccco1,"inconclusive: 29.1 µM [rising, single point]",
CCN(Cc1ccccc1)C(=O)c1cc(S(=O)(=O)N2CCOCC2)cn1C,inactive,
C=CCn1c(COc2ccccc2)nc2ccccc21,inactive,
O=C(COC(=O)c1ccccc1NS(=O)(=O)c1cccs1)NCC12CC3CC(CC(C3)C1)C2,active: 14.6 µM,
CC(C)(C)c1ccc(C(=O)C2CCCN(C(=O)CN3CCCC3=O)C2)cc1 (stereo unspecified),,inconclusive: -4.29%
COCCCN1C(=O)C(=O)/C(=C(/O)c2ccc(S(=O)(=O)N3CCOCC3)cc2)C1c1ccc(C(C)C)cc1 (stereo unspecified),inactive,
C=CCn1c(Sc2nncn2C)nc2c1c(=O)[nH]c(=O)n2C,inactive,

Structure (SMILES),Potency,"activity change, negative = cytotoxicity"
COc1ccc(-c2csc(CCn3nc(C)cc3C)n2)cc1,"inconclusive: 13 µM [cytotoxic, partial curve]",
CCC(=O)Nc1cc(C(=O)OCc2ccc(C(=O)Oc3ccccc3)cc2)ccc1C,inactive,
O=C(N/N=C1\CC(c2ccccc2)Oc2ccccc21)c1ccc(O)cc1 (stereo unspecified),inactive,
COc1cccc(NC(=O)CN(C)C(=O)CCSc2ccc(C)cc2)c1,"inconclusive: 29.1 µM [cytotoxic, single point]",
COc1ccc(-c2coc3c(C(=O)Nc4cccnc4)cccc23)c(C)c1,"inconclusive: 18.4 µM [cytotoxic, single point]",
CC(=O)Nc1ccc(NC(=O)c2cc3sccc3n2Cc2ccc(Cl)cc2)cc1,inactive,
COc1ccc(CN2CCN(C(=O)CCC(=O)Nc3nnc(C(F)(F)F)s3)CC2)cc1F,inactive,
Cc1ccc(NC(=O)CN2CCCN(S(=O)(=O)c3ccc(Br)s3)CC2)cc1,active: 4.61 µM,
Cc1ccc(NS(=O)(=O)c2ccc3c(c2)CCC(=O)N3)cc1,inactive,
CCCCNC(=O)COC(=O)c1c2c(nc3ccccc13)CCC2,inactive,
Cc1nc(CS(=O)(=O)c2ccc(Cl)cc2)cc(Sc2ccc(Cl)cc2)n1,"inconclusive: 16.4 µM [cytotoxic, single point]",
COCCN1C(=O)/C(=C/c2cc3c(cc2Br)OCO3)NC1=S,inactive,
COc1ccccc1NC(=O)CSc1nnc(Cc2cccn2C)n1CCc1ccccc1,inactive,
COc1cc(C(=O)N2c3ccccc3CC2C)cc(OC)c1OC (stereo unspecified),active: 18.4 µM,
C[S+](C)CC(=O)c1ccc2ccccc2c1,"inconclusive: 2.91 µM [rising, partial curve]",
CCCC1S/C(=N/N=C/c2ccc(OC)cc2)N(Cc2ccc(OC)cc2)C1=O (stereo unspecified),active: 16.4 µM,
N#Cc1ccc(S(=O)(=O)Nc2ccccc2N2CCOCC2)cc1,"inconclusive: 29.1 µM [cytotoxic, single point]",
COc1ccc(-c2nn(-c3ccccc3)cc2/C=C/C(=O)OCC(=O)Nc2ccc(C#N)cc2)cc1,active: 9.2 µM,
Cc1ccc2oc(-c3cccc(NC(=O)c4ccccn4)c3)nc2c1,inactive,
CC(C)C[C@H]1CNC(=S)N1CC1CCCN1C[C@H](Cc1ccc(O)cc1)N1C[C@H](Cc2ccccc2)N(CC2CCCCCC2)C1=S (stereo partly specified),"inconclusive: 29.1 µM [cytotoxic, single point]",
COc1cccc(N2CCN(c3nc(C)cc(=O)[nH]3)CC2)c1,inactive,
O=C(NNC(=O)c1cccs1)c1ccc(Cl)nc1,inactive,
O=C(O)CCCNC(=O)/C(=C\c1ccc(Cl)cc1)NC(=O)c1ccc(Br)cc1,"inconclusive: 1.3 µM [rising, full curve, poor fit]",
CCOC(=O)c1ccc(NC(=O)c2c(C)[nH]c(C(=O)OCC)c2C)cc1,"inconclusive: 8.2 µM [cytotoxic, partial curve]",

# Three entries from above, ordered by SMILES length, largest number first:
Structure (SMILES),Potency,"activity change, negative = cytotoxicity"
Cc1ccc(NC(=O)CN2CCCN(S(=O)(=O)c3ccc(Br)s3)CC2)cc1,active: 4.61 µM,
O=C(N/N=C1\CC(c2ccccc2)Oc2ccccc21)c1ccc(O)cc1 (stereo unspecified),inactive,
COc1cc(C(=O)N2c3ccccc3CC2C)cc(OC)c1OC (stereo unspecified),active: 18.4 µM,
